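Primary screen of methionyl-tRNA synthetase; the read-out is not stated. Target: Methionyl-tRNA synthetase (putative), Leishmania donovani (UniProt E9BF75). The test concentration is not given. Values are per cent inhibition. About 68,000 compounds were tested under these conditions; 0.035% (about 24) showed 50% or more at least once.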

The chains behind the UniProt entries cited, without tags or fusion partners.
UniProt E9BF75, entry or part of it: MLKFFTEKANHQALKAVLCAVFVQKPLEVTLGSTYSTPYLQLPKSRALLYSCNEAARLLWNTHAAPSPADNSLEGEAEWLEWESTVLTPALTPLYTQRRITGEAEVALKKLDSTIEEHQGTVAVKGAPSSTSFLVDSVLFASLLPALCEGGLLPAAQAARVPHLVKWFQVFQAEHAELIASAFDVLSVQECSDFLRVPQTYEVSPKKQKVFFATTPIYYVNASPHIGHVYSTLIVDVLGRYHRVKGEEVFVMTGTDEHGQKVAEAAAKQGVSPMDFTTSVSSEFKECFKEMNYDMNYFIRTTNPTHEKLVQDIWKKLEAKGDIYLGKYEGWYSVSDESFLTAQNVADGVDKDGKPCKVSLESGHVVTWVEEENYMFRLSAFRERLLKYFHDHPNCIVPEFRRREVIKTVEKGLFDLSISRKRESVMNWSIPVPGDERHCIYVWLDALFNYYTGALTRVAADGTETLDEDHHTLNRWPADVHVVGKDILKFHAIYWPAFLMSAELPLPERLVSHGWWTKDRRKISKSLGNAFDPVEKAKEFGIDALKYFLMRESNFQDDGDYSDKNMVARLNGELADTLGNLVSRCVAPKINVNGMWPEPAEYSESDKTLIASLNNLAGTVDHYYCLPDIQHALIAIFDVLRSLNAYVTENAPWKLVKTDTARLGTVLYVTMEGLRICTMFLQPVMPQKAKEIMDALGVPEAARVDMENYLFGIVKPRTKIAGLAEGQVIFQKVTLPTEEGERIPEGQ

All values are in %. The controls that fix the scale are not given in the record; negative values are as filed. The compounds are a random part of those screened.

SMILES,Inhibition
CC(C)CCC(C)NC(=O)CN1C=Nc2ccccc2S1(=O)=O (stereo not drawn),20%
NC(=O)[C@H]1CCCN(c2nccc(-c3ccncc3)n2)C1,10.92%
CCc1cnc(CN(C(C)=O)C2CCN(CCc3cccs3)C2)o1 (stereo not drawn),7.087%
NC(=O)[C@@H]1CCCN1C(=O)c1cn(C/C=C/c2ccccc2)nn1,9.483%
O=C1NCC(C(=O)NCc2ccccc2CN2CCOCC2)N1 (stereo not drawn),13.69%
COc1ccc2c(c1)c(-c1nc(N(C)C)ncc1CN)cn2C,22.54%
CC(C)OCCC(=O)N(C)c1ccc(F)c(Cl)c1,1.344%
CS(=O)(=O)N1CC(c2ncn3ccccc23)C1,12.57%
Cc1cc(CN2CCN(C(=O)NC(C)Cn3ccnc3)CC2)no1 (stereo not drawn),12.24%
CCN(Cc1cnn(C)c1)C[C@H]1CC[C@@H](Cc2cccc(C#N)c2)O1,9.044%
O=C(c1ccccc1)N1CC[C@H]2C[C@H](c3nnc(C4CC4)o3)O[C@@H]2C1,5.168%
N#Cc1cccc(Cl)c1NCCc1n[nH]c(=O)[nH]1,11.62%
COCC1CN(CC2CC2)Cc2nn(C)cc21 (stereo not drawn),1.288%
COC(=O)c1cccn1C1CCN(S(=O)(=O)c2ccccc2)CC1,13.66%
O=C1[C@@H]2C[C@H](O)CCN2C(=O)CN1CCSc1ccccn1,16.51%
Cc1cc(C(=O)NCC(C)N2CCc3ccccc32)on1 (stereo not drawn),24.59%
O=C(COCC1CC1)N1CCN(C(=O)Cc2ccccn2)CC1,14.8%
Cc1cc(C(=O)N2CCCCC2)ccc1NS(C)(=O)=O,4.682%
Cc1oncc1C(=O)N[C@@H]1CN(C2CCC2)C[C@@H]2CCCO[C@@H]21,15.5%
CC(=O)c1c(F)cccc1NCC(O)C1CC1 (stereo not drawn),11.08%
CCNCc1ccc(OCc2ccc3c(c2)OCCO3)cc1,0%
CCc1c(C(=O)NCC(=O)OCC2CC2)cnn1-c1ccc(C)cc1,-20.19%
CNC(=O)c1sc2ccccc2c1CC1CCCN1Cc1cnc(C)s1 (stereo not drawn),7.764%
CC(C)N1CCc2nnc(COc3cncnc3)n2CC1,7.19%
O=C(c1ccc(F)cc1)N1C[C@H]2CCC[C@@]2(COCc2ccccn2)C1,17.17%
O=C(CCC1CCCO1)N1CCc2nc(-c3cnccn3)nc(O)c2C1 (stereo not drawn),14.58%
CNc1cc(N2CCCC2CNCc2c[nH]nc2C(C)(C)C)ncn1 (stereo not drawn),12.38%
COc1ccc(CN2CCC(c3nnc(-c4scnc4C)o3)CC2)cc1,7.294%
CNS(=O)(=O)c1cccc(C(=O)N(C)Cc2ccsc2)c1,10.23%
CC(=O)Nc1ccc(CCC2(NC(=O)C3CCCO3)CCCCC2)cn1 (stereo not drawn),9.206%
CC(=O)N1N=C(c2ccco2)OC1C(=O)NCCc1ccc(O)cc1 (stereo not drawn),11.39%
Cc1nccn1-c1cc(CNC(=O)CCS(=O)(=O)C2CCCC2)ccn1,12.57%
CN(Cc1cccnc1)C1CC2(CCN(c3ncc(F)cn3)CC2)C1,18.25%
Cc1ccc(Oc2ncccc2CNC(=O)C2COC(=O)N2)c(F)c1F (stereo not drawn),19.81%
CC(C)N(CCNc1nc(C2CCCC2)nc2c1cnn2C)C(C)C,14.18%
CCN(CC)CC1CN(Cc2c(C)noc2C)Cc2nccn2C1 (stereo not drawn),12.78%
Cc1nc(-c2ccc(Cl)s2)sc1C(=O)O,4.076%
Cc1cnn(CC2CCCN2CC(=O)Nc2cc(C)on2)c1 (stereo not drawn),19.13%
C[C@@H]1CN(C2CCCCC2)CC[C@@]1(O)C1CCOCC1,9.686%
Cc1nc2ccc(C(=O)N3C[C@@H](O)[C@H](N4CCN(C)CC4)C3)cc2[nH]1,20.58%
CC(C)(C)c1n[nH]c(C2CN(C(=O)c3cc(Cl)c[nH]3)CCO2)n1 (stereo not drawn),14.79%
Cc1ncc(CC(=O)N2CCC3(CCC(=O)N(CCO)C3)CC2)c(=O)[nH]1,5.651%
CC(=O)Nc1nc(C(=O)N2CCCC2c2ccccc2C)cs1 (stereo not drawn),8.502%
CCOC(=O)N1[C@@H](c2ccco2)[C@@H](CO)C[C@]12CCCCNC2=O,10.14%
Cn1cccc1C(=O)N1CCC2(CCCN2S(C)(=O)=O)CC1,-34.31%
Cn1nc2c(cc1=O)CN(Cc1nc(-c3cccs3)no1)CC2,9.79%
Cc1ccc(C(CNC(=O)NCc2ccccn2)N2CCOCC2)o1 (stereo not drawn),5.263%
CN1CCN(Cc2ccccc2Oc2nccc3occc23)CC1,6.944%
COC(=O)C(O)C1CCN(CCc2ccccn2)CC1 (stereo not drawn),5.707%
Cc1ccc(OCC(=O)NCC(C)C)nc1,11.5%
Cc1ncc(CN2CCc3c(nc(-c4ccccn4)[nH]c3=O)C2)n1C,11.46%
Cc1cccc(CN2C(=O)CCC23CCN(C(=O)NC(C)C)CC3)n1,2.244%
CC(=O)N1CCC(c2nc3ccc(NC4CCC4)cn3n2)CC1,7.625%
CC(C)CC(NC(=O)c1ccn(C)c(=O)c1)c1ccccc1 (stereo not drawn),5.744%
C=C(C)CN(CC)C(=O)c1cc(C)ccc1NS(C)(=O)=O,17.02%
Cc1c(Cl)cccc1NC(=O)CN(Cc1cccnc1)C(C)C,4.969%
CCn1nc(C)c(C(=O)Nc2ccc3c(c2)C(C)(C)C(=O)N3C)c1C,9.065%
Fc1cnc(N2CCO[C@H]3[C@H](OCCN4CCCC4)CC[C@@H]32)nc1,6.234%
CC(C)NC(=O)c1nnn(-c2ccccc2)c1C1CC1,17.85%
CCS(=O)(=O)NC(CCSC)C(=O)Nc1cccc(C)c1C (stereo not drawn),18.56%
COCCNC(=O)[C@@H]1CC[C@@H]2[C@@H](CCN2c2ncc(F)cn2)O1,10.75%
CC(C)(C)OC(=O)NC1CCCN(Cc2cccc(O)c2)C1 (stereo not drawn),4.087%
CC(C)(C)OC(=O)N1CCCN1C(=O)c1cccc(F)c1F,2.484%
COCC(=O)NC(c1ccccc1)c1ccc2c(c1)CCCO2 (stereo not drawn),10.24%
Cc1nc(CN2CCc3nn(C)c(=O)cc3C2)oc1C,12.57%

Some entries from above, unchanged:

- CNS(=O)(=O)c1cccc(C(=O)N(C)Cc2ccsc2)c1 | 10.23%
- Cc1nccn1-c1cc(CNC(=O)CCS(=O)(=O)C2CCCC2)ccn1 | 12.57%
- O=C(COCC1CC1)N1CCN(C(=O)Cc2ccccn2)CC1 | 14.8%
- CC(=O)c1c(F)cccc1NCC(O)C1CC1 (stereo not drawn) | 11.08%

Measurements from “University of Dundee, Small-Polar-MMV Screening Library” (2021), ChEMBL document CHEMBL3988442.